Literature values in patent US20120178147A1, “MICROBIAL CULTURES AND METHODS FOR ANAEROBIC BIOREMEDIATION” (priority 2009, published 2012).

Assays:
[1] = cited from earlier work
[2] = cited from earlier work; remark: listed apart in the source

| SMILES | removal ([1]; shake flask and bench scale CFAS experiments (Gledhill, 1975)) | removed during wastewater treatment ([1]; sorption and biodegradation (Consortium, 2002)) [%] | adsorbed to the sludge ([2]; German wastewater treatment plant (Bester, 2003)) | removed ([2]; continuous activated sludge laboratory study (Federle et al., 2002)) |
| --- | --- | --- | --- | --- |
| O=C(Nc1ccc(Cl)cc1)Nc1ccc(Cl)c(Cl)c1 [TCC, 3-(4-chlorophenyl)-1-(3,4-dichlorphenyl) urea] | up to 96% | 98 | – | – |
| Oc1cc(Cl)ccc1Oc1ccc(Cl)cc1Cl [TCS, 5-chloro-2-[2,4-dichloro-phenoxy]-phenol] | – | – | approximately 30% | more than 80% |
